# Source: the supplement of paper PMC8728848
# The list shows a part of the results.
# B1: Gs78B-bfa-542-29-542 (Bacteroides fragilis) (protein)
# chain: SEDINRNPLLPTKEDEKMDGVIYGAYLPNLEKSVIPIGTASESTEPVNRYQIGVNLAGDAWAGYMSPRDNKFNGSKNFTNYFMYENWVNYVYSFMVTDVYSPWMQIKRISQDEGTRNDEIYALAQIIKIAALHRTTDMFGPIPYSQVGKGSFKVAYDSQESVYRSFLKELEEAVQTLDDYSNKSKEVLPAFDIVYNGDVNKWMRFANSLMLRLAIRVRFADAGLAKEYAEKAVKHPAGLINSKELAAQMGKGAGLQMKNPLKVINEEYNDTRMGATIYSYLAGYNDARAAVYFVKNNGFKAVRCGIAKSGDAYNGFTRPNVHEDDPLYWMKASEVCFLKAEGALAGFDMGGSAGDFYNAGIRMSFSENGLDNSSAETYLKDSTRKPANYTDTSNGELSANAPSSITIRWENGATEEEKLERIITQKYLAIFPNGQEAWTEWRRTGYPRQIVVAENKTNSAVLIGNGYDLGGVRRLPYPRTEYEQNGENLHNAISQYLGGVDNAATKVWWDKKSK
# Columns and labels:
# Assay in all cases: glycan array binding signal (z-score within array); higher = stronger binding
# Details in all cases: glycan notation: IUPAC condensed, linker removed
# [1] = target: Gal(a1-3)[Gal(a1-4)]Gal(b1-4)GlcNAc
# Method in brief: (§1)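 Glycan array data came from 3228 arrays in the Consortium for Functional Glycomics database, and only arrays with an available protein sequence were kept. Glycan names were put into IUPAC-condensed notation, and columns mapping to the same glycan were averaged. The binding signal is a within-array Z-score, averaged across arrays of one protein sequence run at different concentrations or buffers and across linkers. A negative Z-score can be read as non-binding.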
# [2] = target: Gal(a1-4)Gal(b1-3)GlcNAc(b1-2)Man(a1-3)[Gal(a1-4)Gal(b1-3)GlcNAc(b1-2)Man(a1-6)]Man(b1-4)GlcNAc(b1-4)GlcNAc
# Method in brief: as §1
# Gal(a1-4)Gal(b1-4)Glc = target: Gal(a1-4)Gal(b1-4)Glc
# Method in brief: as §1
# Gal(a1-4)Gal(b1-4)GlcNAc = target: Gal(a1-4)Gal(b1-4)GlcNAc
# Method in brief: as §1
# [3] = target: Gal(a1-4)Gal(b1-4)GlcNAc(b1-2)Man(a1-3)[Gal(a1-4)Gal(b1-4)GlcNAc(b1-2)Man(a1-6)]Man(b1-4)GlcNAc(b1-4)GlcNAc
# Method in brief: as §1
# [4] = target: Gal(a1-4)Gal(b1-4)GlcNAc(b1-3)Gal(b1-4)Glc
# Method in brief: as §1
# Gal(a1-4)GlcNAc = target: Gal(a1-4)GlcNAc
# Method in brief: as §1
# Gal(a1-6)Glc = target: Gal(a1-6)Glc
# Method in brief: as §1
# Gal(b1-2)Gal = target: Gal(b1-2)Gal
# Method in brief: as §1
# Gal(b1-3)Gal = target: Gal(b1-3)Gal
# Method in brief: as §1
# Gal(b1-3)Gal(b1-4)GlcNAc = target: Gal(b1-3)Gal(b1-4)GlcNAc
# Method in brief: as §1
# Gal(b1-3)GalNAc = target: Gal(b1-3)GalNAc
# Method in brief: as §1
# [5] = target: Gal(b1-3)GalNAc(a1-3)[Fuc(a1-2)]Gal(b1-4)Glc
# Method in brief: as §1
# [6] = target: Gal(b1-3)GalNAc(a1-3)[Fuc(a1-2)]Gal(b1-4)GlcNAc
# Method in brief: as §1
# Gal(b1-3)GalNAc(b1-3)Gal = target: Gal(b1-3)GalNAc(b1-3)Gal
# Method in brief: as §1
# [7] = target: Gal(b1-3)GalNAc(b1-3)Gal(a1-4)Gal(b1-4)Glc
# Method in brief: as §1
# [8] = target: Gal(b1-3)GalNAc(b1-4)Gal(b1-4)Glc
# Method in brief: as §1
# [9] = target: Gal(b1-3)GalNAc(b1-4)[Neu5Ac(a2-3)]Gal(b1-4)Glc
# Method in brief: as §1
# Gal(b1-3)GlcNAc = target: Gal(b1-3)GlcNAc
# Method in brief: as §1
# [10] = target: Gal(b1-3)GlcNAc(a1-3)Gal(b1-4)GlcNAc
# Method in brief: as §1
# [11] = target: Gal(b1-3)GlcNAc(a1-6)Gal(b1-4)GlcNAc
# Method in brief: as §1
# Gal(b1-3)GlcNAc(b1-2)Man = target: Gal(b1-3)GlcNAc(b1-2)Man
# Method in brief: as §1
# [12] = target: Gal(b1-3)GlcNAc(b1-2)Man(a1-3)[Gal(b1-3)GlcNAc(b1-2)Man(a1-6)]Man(b1-4)GlcNAc(b1-4)GlcNAc
# Method in brief: as §1
# [13] = target: Gal(b1-3)GlcNAc(b1-2)Man(a1-3)[Gal(b1-3)GlcNAc(b1-2)Man(a1-6)]Man(b1-4)GlcNAc(b1-4)[Fuc(a1-6)]GlcNAc
# Method in brief: as §1
# [14] = target: Gal(b1-3)GlcNAc(b1-2)Man(a1-3)[GlcNAc(b1-4)][Gal(b1-3)GlcNAc(b1-2)Man(a1-6)]Man(b1-4)GlcNAc(b1-4)GlcNAc
# Method in brief: as §1
# [15] = target: Gal(b1-3)GlcNAc(b1-2)[Gal(b1-3)GlcNAc(b1-6)]Man(a1-6)[Gal(b1-3)GlcNAc(b1-2)Man(a1-3)]Man(b1-4)GlcNAc(b1-4)GlcNAc
# Method in brief: as §1
# [16] = target: Gal(b1-3)GlcNAc(b1-3)Gal(b1-3)GlcNAc
# Method in brief: as §1
# [17] = target: Gal(b1-3)GlcNAc(b1-3)Gal(b1-4)Glc
# Method in brief: as §1
# [18] = target: Gal(b1-3)GlcNAc(b1-3)Gal(b1-4)GlcNAc
# Method in brief: as §1
# [19] = target: Gal(b1-3)GlcNAc(b1-3)Gal(b1-4)GlcNAc(b1-2)Man(a1-3)[Gal(b1-3)GlcNAc(b1-3)Gal(b1-4)GlcNAc(b1-2)Man(a1-6)]Man(b1-4)GlcNAc(b1-4)GlcNAc
# Method in brief: as §1
# [20] = target: Gal(b1-3)GlcNAc(b1-3)Gal(b1-4)GlcNAc(b1-2)[Gal(b1-3)GlcNAc(b1-3)Gal(b1-4)GlcNAc(b1-6)]Man(a1-6)[Gal(b1-3)GlcNAc(b1-3)Gal(b1-4)GlcNAc(b1-2)Man(a1-3)]Man(b1-4)GlcNAc(b1-4)[Fuc(a1-6)]GlcNAc
# Method in brief: as §1
# [21] = target: Gal(b1-3)GlcNAc(b1-3)Gal(b1-4)GlcNAc(b1-3)Gal(b1-4)GlcNAc(b1-2)[Gal(b1-3)GlcNAc(b1-3)Gal(b1-4)GlcNAc(b1-3)Gal(b1-4)GlcNAc(b1-6)]Man(a1-6)[Gal(b1-3)GlcNAc(b1-3)Gal(b1-4)GlcNAc(b1-3)Gal(b1-4)GlcNAc(b1-2)Man(a1-3)]Man(b1-4)GlcNAc(b1-4)[Fuc(a1-6)]GlcNAc
# Method in brief: as §1
# [22] = target: Gal(b1-3)GlcNAc(b1-3)Gal(b1-4)GlcNAc(b1-6)[Gal(b1-3)GlcNAc(b1-3)]Gal(b1-4)Glc
# Method in brief: as §1
# [23] = target: Gal(b1-3)GlcNAc(b1-3)Gal(b1-4)[Fuc(a1-3)]GlcNAc
# Method in brief: as §1
# [24] = target: Gal(b1-3)GlcNAc(b1-3)Gal(b1-4)[Fuc(a1-3)]GlcNAc(b1-6)[Gal(b1-3)GlcNAc(b1-3)]Gal(b1-4)Glc
# Method in brief: as §1
# [25] = target: Gal(b1-3)GlcNAc(b1-3)GalNAc
# Method in brief: as §1
# [26] = target: Gal(b1-3)GlcNAc(b1-6)Gal(b1-4)GlcNAc
# Method in brief: as §1
# [27] = target: Gal(b1-3)GlcNAc(b1-6)GalNAc
# Method in brief: as §1
binder,measurement,setting,value
B1,glycan array binding signal (z-score),[1],0.701
same,glycan array binding signal (z-score),[2],1.76
same,glycan array binding signal (z-score),Gal(a1-4)Gal(b1-4)Glc,2.76
same,glycan array binding signal (z-score),Gal(a1-4)Gal(b1-4)GlcNAc,0.632
same,glycan array binding signal (z-score),[3],1.51
same,glycan array binding signal (z-score),[4],-0.65
same,glycan array binding signal (z-score),Gal(a1-4)GlcNAc,0.473
same,glycan array binding signal (z-score),Gal(a1-6)Glc,-0.763
same,glycan array binding signal (z-score),Gal(b1-2)Gal,-0.774
same,glycan array binding signal (z-score),Gal(b1-3)Gal,0.161
same,glycan array binding signal (z-score),Gal(b1-3)Gal(b1-4)GlcNAc,1.69
same,glycan array binding signal (z-score),Gal(b1-3)GalNAc,-0.151
same,glycan array binding signal (z-score),[5],0.1
same,glycan array binding signal (z-score),[6],1.54
same,glycan array binding signal (z-score),Gal(b1-3)GalNAc(b1-3)Gal,-0.712
same,glycan array binding signal (z-score),[7],0.448
same,glycan array binding signal (z-score),[8],-0.176
same,glycan array binding signal (z-score),[9],1.7
same,glycan array binding signal (z-score),Gal(b1-3)GlcNAc,-0.119
same,glycan array binding signal (z-score),[10],-0.178
same,glycan array binding signal (z-score),[11],1.13
same,glycan array binding signal (z-score),Gal(b1-3)GlcNAc(b1-2)Man,1.37
same,glycan array binding signal (z-score),[12],-0.165
same,glycan array binding signal (z-score),[13],1.53
same,glycan array binding signal (z-score),[14],1.85
same,glycan array binding signal (z-score),[15],-0.471
same,glycan array binding signal (z-score),[16],1.03
same,glycan array binding signal (z-score),[17],-0.698
same,glycan array binding signal (z-score),[18],-0.266
same,glycan array binding signal (z-score),[19],-0.404
same,glycan array binding signal (z-score),[20],0.613
same,glycan array binding signal (z-score),[21],0.392
same,glycan array binding signal (z-score),[22],-0.123
same,glycan array binding signal (z-score),[23],0.623
same,glycan array binding signal (z-score),[24],-0.25
same,glycan array binding signal (z-score),[25],1.2
same,glycan array binding signal (z-score),[26],-0.54
same,glycan array binding signal (z-score),[27],-0.286

# Shown with bars between the fields: part of the list above.
binder | measurement | setting | value
B1 | glycan array binding signal (z-score) | [6] | 1.54
same | glycan array binding signal (z-score) | [15] | -0.471
